According to PMC12290104, “PEAK1 maintains tight junctions in intestinal epithelial cells and resists colitis by inhibiting autophagy-mediated ZO-1 degradation” (Nature Communications, 2025):
No constants are given. Whether binding was seen depends on the method and setting. Binding seen in cells or lysates may run through a third protein. Here binding means that the protein was enriched with, or labelled near, the bait; the list need not be complete.

Sequences of proteins named here, by UniProt entry; tags and fusion partners are left off.
UniProt Q9H792: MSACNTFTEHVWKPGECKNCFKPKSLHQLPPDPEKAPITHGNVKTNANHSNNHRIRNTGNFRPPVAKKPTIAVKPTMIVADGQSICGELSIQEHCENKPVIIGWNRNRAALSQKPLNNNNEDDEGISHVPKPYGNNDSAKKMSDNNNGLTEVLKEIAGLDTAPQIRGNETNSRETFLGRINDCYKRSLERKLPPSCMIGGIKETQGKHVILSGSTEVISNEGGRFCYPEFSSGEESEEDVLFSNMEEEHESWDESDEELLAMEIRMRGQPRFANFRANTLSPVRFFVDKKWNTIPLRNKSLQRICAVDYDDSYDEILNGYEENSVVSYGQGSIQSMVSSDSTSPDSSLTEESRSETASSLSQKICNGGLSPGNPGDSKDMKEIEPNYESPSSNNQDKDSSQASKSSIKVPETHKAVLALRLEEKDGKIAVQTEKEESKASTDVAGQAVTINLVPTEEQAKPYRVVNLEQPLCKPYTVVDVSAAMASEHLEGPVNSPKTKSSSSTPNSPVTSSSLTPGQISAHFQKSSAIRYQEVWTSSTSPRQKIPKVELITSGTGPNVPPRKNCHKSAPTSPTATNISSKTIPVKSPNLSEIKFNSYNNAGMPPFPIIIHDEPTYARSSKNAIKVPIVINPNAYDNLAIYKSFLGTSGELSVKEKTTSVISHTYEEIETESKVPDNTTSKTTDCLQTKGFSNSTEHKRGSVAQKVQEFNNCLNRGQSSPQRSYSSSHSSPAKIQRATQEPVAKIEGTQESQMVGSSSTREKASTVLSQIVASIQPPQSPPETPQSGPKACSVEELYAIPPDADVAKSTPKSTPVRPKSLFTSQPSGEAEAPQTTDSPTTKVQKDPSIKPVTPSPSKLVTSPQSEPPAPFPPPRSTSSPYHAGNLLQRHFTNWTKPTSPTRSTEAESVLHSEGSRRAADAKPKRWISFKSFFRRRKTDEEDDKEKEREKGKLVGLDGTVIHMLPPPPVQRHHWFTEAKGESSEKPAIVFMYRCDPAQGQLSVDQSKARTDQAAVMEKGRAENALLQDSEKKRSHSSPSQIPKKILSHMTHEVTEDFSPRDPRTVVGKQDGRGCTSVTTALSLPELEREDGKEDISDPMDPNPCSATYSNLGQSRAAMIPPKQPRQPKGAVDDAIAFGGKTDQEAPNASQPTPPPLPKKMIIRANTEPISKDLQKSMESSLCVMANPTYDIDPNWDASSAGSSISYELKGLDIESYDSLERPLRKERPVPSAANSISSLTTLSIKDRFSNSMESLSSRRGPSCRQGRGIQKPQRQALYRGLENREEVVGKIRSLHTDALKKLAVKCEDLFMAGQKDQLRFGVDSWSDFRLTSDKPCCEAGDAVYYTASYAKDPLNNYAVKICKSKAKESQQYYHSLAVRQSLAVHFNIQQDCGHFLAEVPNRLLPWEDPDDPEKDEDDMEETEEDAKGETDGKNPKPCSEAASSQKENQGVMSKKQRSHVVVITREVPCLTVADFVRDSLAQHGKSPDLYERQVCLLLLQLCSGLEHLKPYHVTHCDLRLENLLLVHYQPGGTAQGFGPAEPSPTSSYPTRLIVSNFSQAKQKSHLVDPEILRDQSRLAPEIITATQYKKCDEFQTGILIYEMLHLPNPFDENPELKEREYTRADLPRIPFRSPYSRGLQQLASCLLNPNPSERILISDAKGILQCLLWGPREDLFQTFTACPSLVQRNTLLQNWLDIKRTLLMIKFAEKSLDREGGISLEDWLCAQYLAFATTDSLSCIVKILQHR
UniProt P41240: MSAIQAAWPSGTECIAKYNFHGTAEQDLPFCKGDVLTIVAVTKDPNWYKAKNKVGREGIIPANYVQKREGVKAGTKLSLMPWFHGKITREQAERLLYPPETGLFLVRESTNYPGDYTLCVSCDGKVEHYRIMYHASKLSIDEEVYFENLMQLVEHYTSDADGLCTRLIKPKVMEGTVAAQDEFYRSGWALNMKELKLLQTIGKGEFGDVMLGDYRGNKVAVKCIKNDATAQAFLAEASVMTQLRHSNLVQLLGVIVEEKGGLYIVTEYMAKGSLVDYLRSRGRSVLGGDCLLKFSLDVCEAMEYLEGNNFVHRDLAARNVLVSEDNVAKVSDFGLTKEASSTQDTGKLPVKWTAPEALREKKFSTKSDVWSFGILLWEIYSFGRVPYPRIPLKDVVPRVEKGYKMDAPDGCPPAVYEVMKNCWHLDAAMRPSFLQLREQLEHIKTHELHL
UniProt Q07157: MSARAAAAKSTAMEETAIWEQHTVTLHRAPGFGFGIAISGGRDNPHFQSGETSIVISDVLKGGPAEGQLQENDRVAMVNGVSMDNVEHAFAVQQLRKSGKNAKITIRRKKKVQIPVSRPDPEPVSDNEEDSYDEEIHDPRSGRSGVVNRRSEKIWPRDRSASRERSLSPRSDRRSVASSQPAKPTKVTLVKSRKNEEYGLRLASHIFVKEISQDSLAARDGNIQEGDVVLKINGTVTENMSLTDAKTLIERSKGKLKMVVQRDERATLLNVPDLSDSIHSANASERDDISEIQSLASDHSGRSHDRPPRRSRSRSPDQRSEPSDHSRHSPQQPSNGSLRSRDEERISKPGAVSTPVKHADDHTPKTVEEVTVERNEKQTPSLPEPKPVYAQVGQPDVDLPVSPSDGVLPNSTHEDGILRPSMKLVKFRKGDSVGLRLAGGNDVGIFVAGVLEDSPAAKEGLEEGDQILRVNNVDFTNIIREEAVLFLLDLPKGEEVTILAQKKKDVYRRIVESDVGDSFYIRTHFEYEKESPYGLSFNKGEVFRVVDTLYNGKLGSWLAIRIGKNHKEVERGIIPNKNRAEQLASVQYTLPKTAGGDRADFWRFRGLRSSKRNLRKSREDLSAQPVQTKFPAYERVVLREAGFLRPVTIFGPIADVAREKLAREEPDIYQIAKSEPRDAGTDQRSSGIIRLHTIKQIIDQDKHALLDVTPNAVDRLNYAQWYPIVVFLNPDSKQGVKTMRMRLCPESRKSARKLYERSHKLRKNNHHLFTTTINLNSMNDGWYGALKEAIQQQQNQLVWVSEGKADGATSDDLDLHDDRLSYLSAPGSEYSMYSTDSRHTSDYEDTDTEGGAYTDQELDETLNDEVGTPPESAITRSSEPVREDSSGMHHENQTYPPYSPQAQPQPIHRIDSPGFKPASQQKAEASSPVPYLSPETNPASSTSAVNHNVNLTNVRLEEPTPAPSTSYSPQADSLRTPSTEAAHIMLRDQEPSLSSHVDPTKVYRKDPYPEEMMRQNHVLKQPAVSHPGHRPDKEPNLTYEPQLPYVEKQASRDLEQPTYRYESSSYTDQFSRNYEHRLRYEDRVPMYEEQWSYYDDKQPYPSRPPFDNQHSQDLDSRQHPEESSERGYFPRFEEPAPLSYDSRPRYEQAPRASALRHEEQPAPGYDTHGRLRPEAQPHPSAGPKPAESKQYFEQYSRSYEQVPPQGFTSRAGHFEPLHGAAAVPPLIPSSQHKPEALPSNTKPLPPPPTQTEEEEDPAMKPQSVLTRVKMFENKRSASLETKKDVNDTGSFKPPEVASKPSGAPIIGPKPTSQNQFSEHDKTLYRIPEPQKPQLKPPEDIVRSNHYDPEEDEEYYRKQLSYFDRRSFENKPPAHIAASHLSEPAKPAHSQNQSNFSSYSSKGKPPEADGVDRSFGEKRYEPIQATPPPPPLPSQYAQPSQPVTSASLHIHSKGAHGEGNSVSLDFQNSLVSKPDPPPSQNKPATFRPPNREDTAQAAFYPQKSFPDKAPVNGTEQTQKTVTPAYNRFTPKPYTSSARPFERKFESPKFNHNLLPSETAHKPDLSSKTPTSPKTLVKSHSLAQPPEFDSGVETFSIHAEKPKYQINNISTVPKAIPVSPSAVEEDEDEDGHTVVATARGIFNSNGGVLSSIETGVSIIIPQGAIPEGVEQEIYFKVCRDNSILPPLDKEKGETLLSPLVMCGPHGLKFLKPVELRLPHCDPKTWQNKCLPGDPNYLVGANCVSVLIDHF

B1: Occludin in HEK293T cell lysate (protein, UniProt Q16625 1-522)
chain: MSSRPLESPPPYRPDEFKPNHYAPSNDIYGGEMHVRPMLSQPAYSFYPEDEILHFYKWTSPPGVIRILSMLIIVMCIAIFACVASTLAWDRGYGTSLLGGSVGYPYGGSGFGSYGSGYGYGYGYGYGYGGYTDPRAAKGFMLAMAAFCFIAALVIFVTSVIRSEMSRTRRYYLSVIIVSAILGIMVFIATIVYIMGVNPTAQSSGSLYGSQIYALCNQFYTPAATGLYVDQYLYHYCVVDPQEAIAIVLGFMIIVAFALIIFFAVKTRRKMDRYDKSNILWDKEHIYDEQPPNVEEWVKNVSAGTQDVPSPPSDYVERVDSPMAYSSNGKVNDKRFYPESSYKSTPVPEVVQELPLTSPVDDFRQPRYSSGGNFETPSKRAPAKGRAGRSKRTEQDHYETDYTTGGESCDELEEDWIREYPPITSDQQRQLYKRNFDTGLQEYKSLQSELDEINKELSRLDKELDDYREESEEYMAAADEYNRLKQVKGSADYKSKKNHCKQLKSKLSHIKKMVGDYDRQKT

The molecules below were run against GFP-PEAK1 (human) (UniProt Q9H792) (assay: affinity purification with mass spectrometry; GFP-PEAK1 overexpressed in HEK293T cells, immunoprecipitated; gel bands digested and read by LC-MS/MS).

binding, binds:
CSK in HEK293T cell lysate (from UniProt P41240 1-450)
ZO-1 in HEK293T cell lysate (from UniProt Q07157 1-1748)
B1
